Results are given in words; binding and its absence hold for the method and conditions named. Binding seen in cells or lysates may run through a third protein. Some binding calls cover weakened binding; strength is not graded here.
Target: N-terminal 3xFLAG-tagged TCF-4 (UniProt Q9NQB0)
Experiment: co-IP; Neuro-2a cells transfected with 3xFLAG-TCF-4 and treated with control CM, Wnt3a CM or GO (0.5 mM)-treated Wnt3a CM; lysis in IP buffer (50 mM Tris/HCl pH 8.0, 150 mM NaCl, 5 mM EDTA, 1% Triton X-100); IP with anti-FLAG M2 on Protein A-sepharose CL-4B for 2 h, 3 washes; Western blot for endogenous β-catenin

Sequences of proteins named here, by UniProt entry; tags and fusion partners are left off.
UniProt Q9NQB0: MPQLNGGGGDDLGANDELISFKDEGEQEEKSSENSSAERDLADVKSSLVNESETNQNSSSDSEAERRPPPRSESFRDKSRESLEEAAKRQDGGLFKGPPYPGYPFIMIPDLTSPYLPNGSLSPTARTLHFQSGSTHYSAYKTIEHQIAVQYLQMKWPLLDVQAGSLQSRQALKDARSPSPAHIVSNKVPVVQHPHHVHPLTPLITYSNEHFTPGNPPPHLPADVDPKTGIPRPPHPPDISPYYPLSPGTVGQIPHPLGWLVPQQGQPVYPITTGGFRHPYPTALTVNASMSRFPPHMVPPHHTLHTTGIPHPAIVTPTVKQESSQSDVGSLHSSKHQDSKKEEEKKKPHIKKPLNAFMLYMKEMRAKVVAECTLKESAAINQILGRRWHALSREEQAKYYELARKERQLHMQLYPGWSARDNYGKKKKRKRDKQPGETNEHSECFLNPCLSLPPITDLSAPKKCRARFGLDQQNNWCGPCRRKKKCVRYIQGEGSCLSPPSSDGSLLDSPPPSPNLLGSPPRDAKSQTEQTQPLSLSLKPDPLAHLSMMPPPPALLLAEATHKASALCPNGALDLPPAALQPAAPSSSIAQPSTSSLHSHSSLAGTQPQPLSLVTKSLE
UniProt Q02248: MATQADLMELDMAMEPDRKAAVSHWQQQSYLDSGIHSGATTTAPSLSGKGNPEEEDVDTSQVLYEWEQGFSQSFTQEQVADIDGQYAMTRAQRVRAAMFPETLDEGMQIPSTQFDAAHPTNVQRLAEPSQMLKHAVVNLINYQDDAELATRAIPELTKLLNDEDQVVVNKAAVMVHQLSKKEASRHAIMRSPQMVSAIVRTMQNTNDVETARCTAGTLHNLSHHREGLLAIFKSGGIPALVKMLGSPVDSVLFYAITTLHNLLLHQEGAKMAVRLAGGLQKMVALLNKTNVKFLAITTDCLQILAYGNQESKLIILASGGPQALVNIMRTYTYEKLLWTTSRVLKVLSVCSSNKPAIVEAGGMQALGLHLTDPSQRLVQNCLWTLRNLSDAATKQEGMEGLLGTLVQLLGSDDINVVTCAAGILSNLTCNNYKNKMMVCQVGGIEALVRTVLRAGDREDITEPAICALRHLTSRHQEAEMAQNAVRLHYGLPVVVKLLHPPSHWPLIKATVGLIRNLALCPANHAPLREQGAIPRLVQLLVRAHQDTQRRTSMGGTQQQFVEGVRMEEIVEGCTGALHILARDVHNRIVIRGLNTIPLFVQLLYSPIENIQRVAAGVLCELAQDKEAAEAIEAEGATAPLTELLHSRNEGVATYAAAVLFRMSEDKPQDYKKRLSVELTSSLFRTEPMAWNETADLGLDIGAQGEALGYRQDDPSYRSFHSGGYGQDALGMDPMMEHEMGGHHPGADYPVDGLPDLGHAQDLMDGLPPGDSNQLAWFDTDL

binding: binds
Substance: β-catenin (from UniProt Q02248 1-781)

Reference: article PMC6912562
